The results in this text go back to PubChem BioAssay AID330 (DTP/NCI, 2004).

Structures are written as SMILES. The list does not hold the whole screen: its compounds were picked by chemical class. Not every dose and run of a compound is shown. T/C is the treated group as % of the vehicle group. Some doses have a count of surviving animals in place of a T/C: the source files T/C as zero there, which appears to mark a toxic dose or a test without result, not a measured value. Some doses without a T/C left all or most animals alive at the check, yet need not have been tolerated: survival well below the control is almost never listed, so the zero probably covers shortened survival too. Counts of survivors are from the toxicity check (mostly the fifth day) where no day follows; animals may have died later. Schedules are NCI's codes, read here as Q, the interval in days (D) or hours (H), X, the number of doses. For survival time, this PubChem deposit counts one and a half times the control or more as active, and values a quarter to a half above the control carry no call in these data; other NCI protocols may use other cut-offs. Some entries hold several experiments; their values stand side by side, smallest first. Some entries show no survivor count and are marked so; the dose need not have been tolerated.

The test system of this assay is P388 leukemia ip, CD2F1 mice, survival T/C. As to the kind of experiment: NCI In Vivo Anticancer Drug Screen. Data for tumor model P388 Leukemia (intraperitoneal) in CD2F1 (CDF1) mice. Particulars: T/C endpoint: median survival time, higher T/C = longer survival.
The mark [1] stands for this setting: dose: 100.0 mg/kg/injection, schedule: Q01DX001 (ip), vehicle: Klucel (hydroxypropylcellulose) (HPC).
[2] abbreviates: dose: 200.0 mg/kg/injection, schedule: Q01DX001 (ip), vehicle: Klucel (hydroxypropylcellulose) (HPC).
[3] abbreviates: dose: 12.5 mg/kg/injection, schedule: Q01DX009 (ip), vehicle: saline with Tween-80.
Setting [4] is: dose: 25.0 mg/kg/injection, schedule: Q01DX009 (ip), vehicle: saline with Tween-80.

Regarding `O=CC(O)C(O)C(O)C(O)CN(CCCl)CCCl` (stereo unspecified), the T/C (dose: 0.62 mg/kg/injection, schedule: Q01DX005 (ip), vehicle: water) is 129 % of control; the T/C (dose: 1.25 mg/kg/injection, schedule: Q01DX005 (ip), vehicle: water) was 132 and 147 % of control; the T/C (dose: 2.5 mg/kg/injection, schedule: Q01DX005 (ip), vehicle: water) was 141 and 163 % of control; the T/C (dose: 5.0 mg/kg/injection, schedule: Q01DX005 (ip), vehicle: water) was 163 and 177 % of control. For the same compound, the survivor count (dose: 10.0 mg/kg/injection, schedule: Q01DX005 (ip), vehicle: water) is on record as 5 of 5; the survivor count (dose: 20.0 mg/kg/injection, schedule: Q01DX005 (ip), vehicle: water) is recorded as 5 of 5; the survivor count (dose: 40.0 mg/kg/injection, schedule: Q01DX005 (ip), vehicle: water) is 3 of 5.

As to `Cc1cc(N(CCCl)CCCl)ccc1N=O`, the T/C runs as follows: under setting [1], 157 % of control [survivor count not shown]; under setting [2], 151 % of control [survivor count not shown].

Turning to `CC(C)(C)N=S=NP(=O)(F)F`, the T/C is, setting by setting: (dose: 6.25 mg/kg/injection, schedule: Q01DX009 (ip), vehicle: saline with Tween-80) 107 % of control; under setting [3], 106 % of control; under setting [4], 104 % of control.

Consider `ClCCN(CCCl)c1cccc(CN2CCOCC2)c1`, for which the T/C (dose: 50.0 mg/kg/injection, schedule: Q04DX003 (ip), vehicle: Klucel (hydroxypropylcellulose) (HPC)) is 116 % of control [survivor count not shown]; the T/C (dose: 100.0 mg/kg/injection, schedule: Q04DX003 (ip), vehicle: Klucel (hydroxypropylcellulose) (HPC)) was 122 % of control [survivor count not shown]; the T/C (dose: 200.0 mg/kg/injection, schedule: Q04DX003 (ip), vehicle: Klucel (hydroxypropylcellulose) (HPC)) was 136 % of control [survivor count not shown].

For the compound `Cc1cccc(CN(CCCl)CCCl)c1`, the T/C runs as follows: (dose: 1.25 mg/kg/injection, schedule: Q01DX009 (ip), vehicle: saline) 137 % of control [survivor count not shown]; (dose: 2.5 mg/kg/injection, schedule: Q01DX009 (ip), vehicle: saline) 155 % of control [survivor count not shown]; (dose: 5.0 mg/kg/injection, schedule: Q01DX009 (ip), vehicle: saline) 163 % of control [survivor count not shown]; (dose: 10.0 mg/kg/injection, schedule: Q01DX009 (ip), vehicle: saline) 91 % of control [survivor count not shown].

With `ClCCN(CCCl)C1Cc2ccccc2C1`, the T/C was 93, 111, 137 % of control (dose: 0.79 mg/kg/injection, schedule: Q01DX009 (ip), vehicle: saline); 103 and 153 % of control (dose: 1.56 mg/kg/injection, schedule: Q01DX009 (ip), vehicle: saline); 95, 103, 150 % of control (dose: 3.12 mg/kg/injection, schedule: Q01DX009 (ip), vehicle: saline); 96, 103, 117, 171 % of control (dose: 6.25 mg/kg/injection, schedule: Q01DX009 (ip), vehicle: saline).

`CC1=CC(=O)C(N(CCCl)CCCl)=CC1=O`: the T/C (dose: 1.56 mg/kg/injection, schedule: Q01DX009 (ip), vehicle: Klucel (hydroxypropylcellulose) (HPC)) was 148 % of control [survivor count not shown]; the T/C (dose: 3.13 mg/kg/injection, schedule: Q01DX009 (ip), vehicle: Klucel (hydroxypropylcellulose) (HPC)) was 157 % of control [survivor count not shown]; the T/C (dose: 6.25 mg/kg/injection, schedule: Q01DX009 (ip), vehicle: Klucel (hydroxypropylcellulose) (HPC)) is 134 % of control [survivor count not shown].

For `C1CCNCC1.O=C(O)C(O)c1ccc(N(CCCl)CCCl)cc1` (stereo unspecified), the T/C reads like this: (dose: 12.5 mg/kg/injection, schedule: Q01DX009 (ip), vehicle: Klucel (hydroxypropylcellulose) (HPC)) 141 % of control [survivor count not shown]; (dose: 25.0 mg/kg/injection, schedule: Q01DX009 (ip), vehicle: Klucel (hydroxypropylcellulose) (HPC)) 150 % of control [survivor count not shown]; (dose: 50.0 mg/kg/injection, schedule: Q01DX009 (ip), vehicle: Klucel (hydroxypropylcellulose) (HPC)) 184 [survivor count not shown] and 192 % of control [survivor count not shown].

As to `Cc1nc(-c2ccc(N(CCCl)CCCl)cc2)cs1`, the T/C (dose: 100.0 mg/kg/injection, schedule: Q01DX009 (ip), vehicle: saline with Tween-80) was 122 % of control [survivor count not shown]; the T/C (dose: 100.0 mg/kg/injection, schedule: Q04DX003 (ip), vehicle: saline with Tween-80) was 95 % of control [survivor count not shown]; the T/C (dose: 200.0 mg/kg/injection, schedule: Q01DX009 (ip), vehicle: saline with Tween-80) is 140 % of control [survivor count not shown]; the T/C (dose: 200.0 mg/kg/injection, schedule: Q04DX003 (ip), vehicle: saline with Tween-80) was 95 % of control [survivor count not shown]; the T/C (dose: 400.0 mg/kg/injection, schedule: Q01DX009 (ip), vehicle: saline with Tween-80) is 136 % of control [survivor count not shown]; the T/C (dose: 400.0 mg/kg/injection, schedule: Q04DX003 (ip), vehicle: saline with Tween-80) is 112 % of control [survivor count not shown].

As to `CC(Cl)CN(CC(C)Cl)c1ccc2ccccc2c1` (stereo unspecified), the T/C by setting is: under setting [1], 109 % of control [survivor count not shown]; under setting [2], 103 % of control [survivor count not shown]; (dose: 400.0 mg/kg/injection, schedule: Q01DX001 (ip), vehicle: Klucel (hydroxypropylcellulose) (HPC)) 117 % of control [survivor count not shown].

For `ClCCN(CCCl)Cc1nc2cc(Cl)c(Cl)cc2[nH]1`, the T/C (dose: 3.13 mg/kg/injection, schedule: Q04DX003 (ip), vehicle: saline with Tween-80) was 109 % of control [survivor count not shown]; the T/C (dose: 6.25 mg/kg/injection, schedule: Q04DX003 (ip), vehicle: saline with Tween-80) is 118 % of control [survivor count not shown]; the T/C under setting [3] was 136 % of control [survivor count not shown]; the T/C (dose: 12.5 mg/kg/injection, schedule: Q04DX003 (ip), vehicle: saline with Tween-80) was 118 [survivor count not shown] and 150 % of control [survivor count not shown]; the T/C under setting [4] is 145 % of control [survivor count not shown]; the T/C (dose: 25.0 mg/kg/injection, schedule: Q04DX003 (ip), vehicle: saline with Tween-80) was 154 % of control [survivor count not shown]. For the same compound, the T/C (dose: 33.0 mg/kg/injection, schedule: Q04DX003 (ip), vehicle: saline with Tween-80) is 140 % of control [survivor count not shown]; the T/C (dose: 50.0 mg/kg/injection, schedule: Q01DX009 (ip), vehicle: saline with Tween-80) is 163 % of control [survivor count not shown]; the T/C (dose: 50.0 mg/kg/injection, schedule: Q04DX003 (ip), vehicle: saline with Tween-80) was 150 [survivor count not shown] and 172 % of control [survivor count not shown]; the T/C (dose: 75.0 mg/kg/injection, schedule: Q04DX003 (ip), vehicle: saline with Tween-80) was 163 % of control [survivor count not shown].

For the compound `NCCN(CCCl)CCCl`, the T/C (dose: 0.25 mg/kg/injection, schedule: Q01DX005 (ip), vehicle: saline) was 168 and 172 % of control; the T/C (dose: 0.5 mg/kg/injection, schedule: Q01DX005 (ip), vehicle: saline) is 168 and 221 % of control; the T/C (dose: 0.67 mg/kg/injection, schedule: Q01DX005 (ip), vehicle: saline) was 191 % of control; the T/C (dose: 1.0 mg/kg/injection, schedule: Q01DX005 (ip), vehicle: saline, evaluated on day 30) is reported as 178, 188, 241 % of control; the T/C (dose: 1.0 mg/kg/injection, schedule: Q01DX005 (ip), vehicle: saline, evaluated on day 60) was 191, 225, 227 % of control; the T/C (dose: 1.5 mg/kg/injection, schedule: Q01DX005 (ip), vehicle: saline) is 257, 277, 323 % of control. The T/C is 86, 241, 267 % of control (dose: 2.0 mg/kg/injection, schedule: Q01DX005 (ip), vehicle: saline); 273 and 336 % of control (dose: 2.2 mg/kg/injection, schedule: Q01DX005 (ip), vehicle: saline).
